Measurements taken from patent US9035064B2, “N-(1,2,5-oxadiazol-3-yl)pyridinecarboxamides and use thereof as herbicides” (BAYER INTELLECTUAL PROPERTY GMBH, priority 2011, dated 2015).
Some of these results come from one statement about several compounds together.

Columns and labels:
Format in all cases: in vivo
Abutilon theophrasti [1] = assay: Pre-emergence herbicidal action against harmful plants; conditions: application rate 320 g/ha, visual assessment after 3 weeks vs untreated controls
Amaranthus retroflexus [2] = assay: as above; conditions: application rate 320 g/ha, visual assessment after 3 weeks vs untreated controls
Echinochloa crus galli = assay: as above; conditions: application rate 320 g/ha, visual assessment after 3 weeks vs untreated controls
Stellaria media = assay: Post-emergence herbicidal action against harmful plants; conditions: application rate 320 g/ha, visual scoring after about 3 weeks vs untreated controls
Abutilon theophrasti [3] = assay: as above; conditions: application rate 320 g/ha, visual scoring after about 3 weeks vs untreated controls
Amaranthus retroflexus [4] = assay: as above; conditions: application rate 80 g/ha, visual scoring after about 3 weeks vs untreated controls
Veronica hederifolia [5] = assay: as above; conditions: application rate 80 g/ha, visual scoring after about 3 weeks vs untreated controls
Veronica hederifolia [6] = assay: Pre-emergence herbicidal action against harmful plants; conditions: application rate 320 g/ha, visual assessment after 3 weeks vs untreated controls
Viola tricolor = assay: as above; conditions: application rate 320 g/ha, visual assessment after 3 weeks vs untreated controls

Cc1nonc1NC(=O)c1ccc(C(F)(F)F)nc1CN1CCCS1(=O)=O [Compound 1-22]
at least 80%: efficacy (herbicidal activity in percent) against Abutilon theophrasti (Abutilon theophrasti [1]) | efficacy (herbicidal activity in percent) against Amaranthus retroflexus (Amaranthus retroflexus [2]) | efficacy (herbicidal activity in percent) against Echinochloa crus galli (Echinochloa crus galli)

Cc1nonc1NC(=O)c1ccc(C(F)(F)F)nc1CN1CCN(C)C1=O [Compound 1-23]
at least 80%: efficacy (herbicidal activity in percent) against Abutilon theophrasti (Abutilon theophrasti [1]) | efficacy (herbicidal activity in percent) against Amaranthus retroflexus (Amaranthus retroflexus [2]) | efficacy (herbicidal activity in percent) against Echinochloa crus galli (Echinochloa crus galli)

CCc1nonc1NC(=O)c1ccc(C(F)(F)F)nc1C [Compound 1-88]
at least 80%: efficacy (herbicidal action in percent) against Stellaria media (Stellaria media) | efficacy (herbicidal action in percent) against Abutilon theophrasti (Abutilon theophrasti [3]) | efficacy (herbicidal action in percent) against Amaranthus retroflexus (Amaranthus retroflexus [4]) | efficacy (herbicidal action in percent) against Veronica hederifolia (Veronica hederifolia [5])

CCc1nonc1NC(=O)c1ccc(C(F)(F)F)nc1COC [Compound 1-90]
at least 80%: efficacy (herbicidal activity in percent) against Abutilon theophrasti (Abutilon theophrasti [1]) | efficacy (herbicidal activity in percent) against Veronica hederifolia (Veronica hederifolia [6]) | efficacy (herbicidal activity in percent) against Viola tricolor (Viola tricolor) | efficacy (herbicidal activity in percent) against Amaranthus retroflexus (Amaranthus retroflexus [2]) | efficacy (herbicidal activity in percent) against Echinochloa crus galli (Echinochloa crus galli)

Cc1nc(C(F)(F)F)ccc1C(=O)Nc1nonc1C(C)C [Compound 1-93]
at least 80%: efficacy (herbicidal action in percent) against Stellaria media (Stellaria media) | efficacy (herbicidal action in percent) against Abutilon theophrasti (Abutilon theophrasti [3]) | efficacy (herbicidal activity in percent) against Abutilon theophrasti (Abutilon theophrasti [1]) | efficacy (herbicidal activity in percent) against Veronica hederifolia (Veronica hederifolia [6]) | efficacy (herbicidal action in percent) against Amaranthus retroflexus (Amaranthus retroflexus [4]) | efficacy (herbicidal activity in percent) against Viola tricolor (Viola tricolor) | efficacy (herbicidal activity in percent) against Amaranthus retroflexus (Amaranthus retroflexus [2]) | efficacy (herbicidal activity in percent) against Echinochloa crus galli (Echinochloa crus galli) | efficacy (herbicidal action in percent) against Veronica hederifolia (Veronica hederifolia [5])

Cc1nc(C(F)(F)F)ccc1C(=O)Nc1nonc1C1CC1 [Compound 1-100]
at least 80%: efficacy (herbicidal action in percent) against Stellaria media (Stellaria media) | efficacy (herbicidal action in percent) against Abutilon theophrasti (Abutilon theophrasti [3]) | efficacy (herbicidal action in percent) against Amaranthus retroflexus (Amaranthus retroflexus [4]) | efficacy (herbicidal action in percent) against Veronica hederifolia (Veronica hederifolia [5])

O=C(Nc1nonc1C1CC1)c1ccc(C(F)(F)F)nc1CN1CCCS1(=O)=O [Compound 1-101]
at least 80%: efficacy (herbicidal activity in percent) against Veronica hederifolia (Veronica hederifolia [6]) | efficacy (herbicidal activity in percent) against Viola tricolor (Viola tricolor)

CC(C)(C)c1nonc1NC(=O)c1ccc(C(F)(F)F)nc1CN1CCCS1(=O)=O [Compound 1-109]
at least 80%: efficacy (herbicidal activity in percent) against Abutilon theophrasti (Abutilon theophrasti [1]) | efficacy (herbicidal activity in percent) against Veronica hederifolia (Veronica hederifolia [6]) | efficacy (herbicidal activity in percent) against Viola tricolor (Viola tricolor) | efficacy (herbicidal activity in percent) against Amaranthus retroflexus (Amaranthus retroflexus [2]) | efficacy (herbicidal activity in percent) against Echinochloa crus galli (Echinochloa crus galli)

CC(=O)Nc1nonc1NC(=O)c1ccc(C(F)(F)F)nc1CN1CCCS1(=O)=O [Compound 1-171]
at least 80%: efficacy (herbicidal action in percent) against Stellaria media (Stellaria media) | efficacy (herbicidal action in percent) against Abutilon theophrasti (Abutilon theophrasti [3]) | efficacy (herbicidal action in percent) against Amaranthus retroflexus (Amaranthus retroflexus [4]) | efficacy (herbicidal action in percent) against Veronica hederifolia (Veronica hederifolia [5])

Nc1nonc1NC(=O)c1ccc(C(F)(F)F)nc1CN1CCCS1(=O)=O [Compound 1-207, N-(4-amino-1,2,5-oxadiazol-3-yl)-2-[(1,1-dioxido-1,2-thiazolidin-2-yl)methyl]-6-(trifluoromethyl)nicotinamide]
at least 80%: efficacy (herbicidal activity in percent) against Abutilon theophrasti (Abutilon theophrasti [1]) | efficacy (herbicidal activity in percent) against Amaranthus retroflexus (Amaranthus retroflexus [2]) | efficacy (herbicidal activity in percent) against Echinochloa crus galli (Echinochloa crus galli)

COCc1nc(C(F)(F)F)ccc1C(=O)Nc1nonc1N [Compound 1-208]
at least 80%: efficacy (herbicidal action in percent) against Amaranthus retroflexus (Amaranthus retroflexus [4]) | efficacy (herbicidal action in percent) against Veronica hederifolia (Veronica hederifolia [5])
